These results are taken from paper PMC7910438, “The TUTase URT1 connects decapping activators and prevents the accumulation of excessively deadenylated mRNAs to avoid siRNA biogenesis” (Nature Communications, 2021).

Experiment [1] deals with T1, DCP5 tagged with GFP (Arabidopsis thaliana) (UniProt Q9C658).
T1 sequence: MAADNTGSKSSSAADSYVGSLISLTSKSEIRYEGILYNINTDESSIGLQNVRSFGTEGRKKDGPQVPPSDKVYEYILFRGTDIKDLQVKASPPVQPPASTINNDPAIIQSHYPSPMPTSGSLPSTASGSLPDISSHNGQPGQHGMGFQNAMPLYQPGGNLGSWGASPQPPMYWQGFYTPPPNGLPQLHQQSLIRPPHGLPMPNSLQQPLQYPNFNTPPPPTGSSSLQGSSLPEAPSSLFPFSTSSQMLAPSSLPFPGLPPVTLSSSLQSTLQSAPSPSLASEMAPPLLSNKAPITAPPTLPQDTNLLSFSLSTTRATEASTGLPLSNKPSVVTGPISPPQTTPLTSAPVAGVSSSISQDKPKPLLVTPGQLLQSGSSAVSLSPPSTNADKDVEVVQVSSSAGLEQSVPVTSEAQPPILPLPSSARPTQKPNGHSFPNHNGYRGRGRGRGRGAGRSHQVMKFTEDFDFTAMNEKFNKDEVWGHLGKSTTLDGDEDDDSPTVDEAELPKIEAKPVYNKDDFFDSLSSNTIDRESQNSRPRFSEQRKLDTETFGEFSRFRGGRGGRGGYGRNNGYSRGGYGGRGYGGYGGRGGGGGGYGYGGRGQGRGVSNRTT
The experiment is described as follows: co-IP; DCP5 tagged with GFP, expressed at endogenous levels, as bait; URT1 detected (Supplementary Fig. 2a); conditions not shown.

For experiment [2], the target named is T2, 6His-GST-m1URT1 (Arabidopsis thaliana) (UniProt O64642).
T2 sequence: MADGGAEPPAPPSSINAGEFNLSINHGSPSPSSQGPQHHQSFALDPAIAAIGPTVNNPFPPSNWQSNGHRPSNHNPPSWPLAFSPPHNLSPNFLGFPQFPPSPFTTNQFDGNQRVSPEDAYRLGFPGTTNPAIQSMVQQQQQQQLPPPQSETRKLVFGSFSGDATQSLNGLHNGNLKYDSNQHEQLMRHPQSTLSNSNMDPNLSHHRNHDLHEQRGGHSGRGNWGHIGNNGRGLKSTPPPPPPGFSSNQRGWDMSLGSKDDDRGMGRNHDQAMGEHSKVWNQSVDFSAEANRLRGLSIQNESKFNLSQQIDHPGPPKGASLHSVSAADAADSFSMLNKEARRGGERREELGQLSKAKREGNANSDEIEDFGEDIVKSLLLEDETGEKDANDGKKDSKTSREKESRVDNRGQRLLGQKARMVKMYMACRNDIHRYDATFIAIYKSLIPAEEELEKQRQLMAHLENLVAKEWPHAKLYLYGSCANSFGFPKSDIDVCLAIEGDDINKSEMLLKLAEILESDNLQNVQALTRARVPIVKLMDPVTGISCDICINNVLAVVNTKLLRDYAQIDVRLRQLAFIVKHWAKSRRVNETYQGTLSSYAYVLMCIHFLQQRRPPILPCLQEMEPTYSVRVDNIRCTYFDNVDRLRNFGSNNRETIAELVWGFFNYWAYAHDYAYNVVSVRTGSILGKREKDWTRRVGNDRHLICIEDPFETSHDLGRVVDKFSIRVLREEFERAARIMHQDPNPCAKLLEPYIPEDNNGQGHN
Nature of the experiment: pull-down; GST pull-down on glutathione sepharose; 10 pmol of each purified protein in 500 µl of 20 mM MOPS pH 7.2, 100 mM KCl, 15% glycerol, 0.1% Tween 20 with 100 ng/µl RNase A, 4 °C; SDS-PAGE, SYPRO Ruby; both purified.

These are yes or no findings as the source states them, for the method shown. For some assays here: In cells and extracts the contact can be indirect. Some binding calls cover weakened binding; strength is not graded here. Where a sequence is shown, tags or fusion partners need not be part of it.

B1: URT1 (endogenous) (enzyme, UniProt O64642 1-764)
chain: MADGGAEPPAPPSSINAGEFLLSILHGSPSPSSQGPQHHQSFALDPAIAAIGPTVNNPFPPSNWQSNGHRPSNHNPPSWPLAFSPPHNLSPNFLGFPQFPPSPFTTNQFDGNQRVSPEDAYRLGFPGTTNPAIQSMVQQQQQQQLPPPQSETRKLVFGSFSGDATQSLNGLHNGNLKYDSNQHEQLMRHPQSTLSNSNMDPNLSHHRNHDLHEQRGGHSGRGNWGHIGNNGRGLKSTPPPPPPGFSSNQRGWDMSLGSKDDDRGMGRNHDQAMGEHSKVWNQSVDFSAEANRLRGLSIQNESKFNLSQQIDHPGPPKGASLHSVSAADAADSFSMLNKEARRGGERREELGQLSKAKREGNANSDEIEDFGEDIVKSLLLEDETGEKDANDGKKDSKTSREKESRVDNRGQRLLGQKARMVKMYMACRNDIHRYDATFIAIYKSLIPAEEELEKQRQLMAHLENLVAKEWPHAKLYLYGSCANSFGFPKSDIDVCLAIEGDDINKSEMLLKLAEILESDNLQNVQALTRARVPIVKLMDPVTGISCDICINNVLAVVNTKLLRDYAQIDVRLRQLAFIVKHWAKSRRVNETYQGTLSSYAYVLMCIHFLQQRRPPILPCLQEMEPTYSVRVDNIRCTYFDNVDRLRNFGSNNRETIAELVWGFFNYWAYAHDYAYNVVSVRTGSILGKREKDWTRRVGNDRHLICIEDPFETSHDLGRVVDKFSIRVLREEFERAARIMHQDPNPCAKLLEPYIPEDNNGQGHN
As to B1, the binding entry in experiment [1] was “binds”.

B2: 6His-MBP-DCP5 (natural protein, Arabidopsis thaliana, UniProt Q9C658 1-611, looked up)
chain: MAADNTGSKSSSAADSYVGSLISLTSKSEIRYEGILYNINTDESSIGLQNVRSFGTEGRKKDGPQVPPSDKVYEYILFRGTDIKDLQVKASPPVQPPASTINNDPAIIQSHYPSPMPTSGSLPSTASGSLPDISSHNGQPGQHGMGFQNAMPLYQPGGNLGSWGASPQPPMYWQGFYTPPPNGLPQLHQQSLIRPPHGLPMPNSLQQPLQYPNFNTPPPPTGSSSLQGSSLPEAPSSLFPFSTSSQMLAPSSLPFPGLPPVTLSSSLQSTLQSAPSPSLASEMAPPLLSNKAPITAPPTLPQDTNLLSFSLSTTRATEASTGLPLSNKPSVVTGPISPPQTTPLTSAPVAGVSSSISQDKPKPLLVTPGQLLQSGSSAVSLSPPSTNADKDVEVVQVSSSAGLEQSVPVTSEAQPPILPLPSSARPTQKPNGHSFPNHNGYRGRGRGRGRGAGRSHQVMKFTEDFDFTAMNEKFNKDEVWGHLGKSTTLDGDEDDDSPTVDEAELPKIEAKPVYNKDDFFDSLSSNTIDRESQNSRPRFSEQRKLDTETFGEFSRFRGGRGGRGGYGRNNGYSRGGYGGRGYGGYGGRGGGGGGYGYGGRGQGRGVSNRTT
notes: DECAPPING 5 (DCP5), Arabidopsis thaliana, AT1G26110; amplified from cDNA; source: E. coli BL21 DE3, purified; not shown: 6His, N-terminal, kept; MBP, N-terminal, kept
With B2, in experiment [2], the binding entry was “no binding (tested: 10 pmol of each protein in 500 µl)”.
